Data source: PubChem BioAssay AID1053208 (Peter MacCallum Cancer Centre, 2014)
Assay: 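Find knock-downs that sensitise mouse osteosarcoma cells to doxorubicin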 (primary screen). System: mouse osteosarcoma cells, early-passage culture from an engineered mouse model of fibroblastic bone tumour. Reagents: siRNA pool against mouse genes, 40 nM. Time to read-out: about 120 h (48 h before drug, then 72 h with drug). Challenge: doxorubicin 100 nM for 72 h, roughly 30-40% inhibitory dose. Measured: 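Luminescent ATP signal taken as viability with or without 100 nM doxorubicin for 72 h; mean of two wells set against non-targeting siRNA and turned into robust z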. Scale: viability z-score with doxorubicin: higher = more viable cells under doxorubicin; viability z-score without drug: higher = more viable cells with knock-down alone. Hit rule: 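a pool counts as active when its viability z-score with doxorubicin is -2 or below and its z-score without drug lies between -2 and 2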.
Here is an unselected part of about 17,000 reagents. In the full data, 788 (4.7%) got an active call. 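Calls rest on z-score classes alone; an extra cut-off of viability at most 70% of control was not applied to them.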 Further read-outs or replicates are left out here.

With knock-down of Nabp1 (nucleic acid binding protein 1), the screen gave combined z-score class no change with or without drug; viability z-score with doxorubicin -0.79; viability z-score without drug -0.84; inactive. Silencing of Bola3 (bolA family member 3) gave: combined z-score class no change with or without drug; viability z-score with doxorubicin -0.22; viability z-score without drug 1.18; inactive. Against Or4k47 (olfactory receptor family 4 subfamily K member 47) the deposit lists combined z-score class no change with or without drug; viability z-score with doxorubicin -1.46; viability z-score without drug -1.18; inactive. After knock-down of Rabl3 (RAB, member RAS oncogene family-like 3) the results were combined z-score class no change with or without drug; viability z-score with doxorubicin 0.67; viability z-score without drug -1.35; inactive. Depletion of Spry1 (sprouty RTK signaling antagonist 1) resulted in: combined z-score class no change with or without drug; viability z-score with doxorubicin 0.67; viability z-score without drug 0.67; inactive. Abi1 (abl interactor 1) showed combined z-score class no change with or without drug; viability z-score with doxorubicin 0.67; viability z-score without drug -0.34; inactive.

Against Or10z1 (olfactory receptor family 10 subfamily Z member 1), the values are combined z-score class no change with or without drug; viability z-score with doxorubicin 0; viability z-score without drug -0.51; inactive. Cers6 (ceramide synthase 6) gave combined z-score class no change with or without drug; viability z-score with doxorubicin 0.67; viability z-score without drug 1.85; inactive. 5930431H10 scored combined z-score class no change with or without drug; viability z-score with doxorubicin 0; viability z-score without drug 0.17; inactive. Against Or7g18 (olfactory receptor family 7 subfamily G member 18) the deposit lists combined z-score class no change with or without drug; viability z-score with doxorubicin 1.12; viability z-score without drug 0.17; inactive. Tcf7l2 (transcription factor 7 like 2, T cell specific, HMG box) showed combined z-score class high cell count without drug only; viability z-score with doxorubicin 0.9; viability z-score without drug 3.04; inactive. With knock-down of Bend7 (BEN domain containing 7), the screen gave combined z-score class no change with or without drug; viability z-score with doxorubicin -1.57; viability z-score without drug 0.84; inactive.

Nkx6-2 (NK6 homeobox 2) showed combined z-score class no change with or without drug; viability z-score with doxorubicin -1.01; viability z-score without drug -1.18; inactive. Ftmt (ferritin mitochondrial) gave combined z-score class high cell count without drug only; viability z-score with doxorubicin -1.35; viability z-score without drug 2.87; inactive. After knock-down of Mecr (mitochondrial trans-2-enoyl-CoA reductase), the record shows combined z-score class no change with or without drug; viability z-score with doxorubicin 0.67; viability z-score without drug 0.67; inactive. Against Ubqln1 (ubiquilin 1) the deposit lists combined z-score class no change with or without drug; viability z-score with doxorubicin -0.22; viability z-score without drug 0.34; inactive. With knock-down of Arhgap45 (Rho GTPase activating protein 45), the record shows combined z-score class no change with or without drug; viability z-score with doxorubicin -1.35; viability z-score without drug -0.51; inactive. Against Klk7 the deposit lists combined z-score class no change with or without drug; viability z-score with doxorubicin -0.67; viability z-score without drug -1.35; inactive.

After knock-down of Neurog1 (neurogenin 1), the record shows combined z-score class no change with or without drug; viability z-score with doxorubicin -0.22; viability z-score without drug 0.84; inactive. Knock-down of Dzip1l (DAZ interacting protein 1-like) resulted in: combined z-score class no change with or without drug; viability z-score with doxorubicin 1.35; viability z-score without drug 1.18; inactive. Sumf1 (sulfatase modifying factor 1) showed combined z-score class no change with or without drug; viability z-score with doxorubicin 0.11; viability z-score without drug 0.84; inactive. For Cpn1 (carboxypeptidase N, polypeptide 1) the deposit lists combined z-score class no change with or without drug; viability z-score with doxorubicin -1.35; viability z-score without drug -0.84; inactive. Or5m9b (olfactory receptor family 5 subfamily M member 9B) gave combined z-score class no change with or without drug; viability z-score with doxorubicin 0.34; viability z-score without drug 0.17; inactive. After knock-down of Dcun1d4 (defective in cullin neddylation 1 domain containing 4) the results were combined z-score class no change with or without drug; viability z-score with doxorubicin 0; viability z-score without drug 1.18; inactive.

Depletion of Smoc1 (SPARC related modular calcium binding 1) resulted in: combined z-score class no change with or without drug; viability z-score with doxorubicin -1.01; viability z-score without drug -1.69; inactive. For Hmgcs2 (3-hydroxy-3-methylglutaryl-Coenzyme A synthase 2) the deposit lists combined z-score class no change with or without drug; viability z-score with doxorubicin -0.67; viability z-score without drug -1.52; inactive. Against Asb15 (ankyrin repeat and SOCS box-containing 15) the deposit lists combined z-score class no change with or without drug; viability z-score with doxorubicin 0.22; viability z-score without drug -0.51; inactive. For Letm2 (leucine zipper-EF-hand containing transmembrane protein 2), the entry reads combined z-score class no change with or without drug; viability z-score with doxorubicin 0; viability z-score without drug -0.51; inactive.

Part of the list above, limited to “viability z-score with doxorubicin”.
Spry1 (sprouty RTK signaling antagonist 1) = 0.67
Abi1 (abl interactor 1) = 0.67
